# Data taken from the supplement of paper PMC3334620.
# Over roughly 33,000 sequences, “E-score (-0.5 to 0.5)” has its median near -0.0059; the highest 2% begin near 0.26. The list shows a part of the results.
# Molecular target: T1, Cin5 (UniProt P40917)
# T1 sequence: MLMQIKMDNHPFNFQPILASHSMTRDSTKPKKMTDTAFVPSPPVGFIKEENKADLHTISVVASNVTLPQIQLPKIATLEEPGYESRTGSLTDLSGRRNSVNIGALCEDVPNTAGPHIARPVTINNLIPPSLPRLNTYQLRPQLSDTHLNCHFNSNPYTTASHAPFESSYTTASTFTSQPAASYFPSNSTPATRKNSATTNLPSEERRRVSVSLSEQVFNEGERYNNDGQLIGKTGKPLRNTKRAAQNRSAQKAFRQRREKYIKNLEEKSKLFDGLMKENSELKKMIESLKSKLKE
# Assay: PBM E-score (8-mer binding enrichment) (E-score (-0.5 to 0.5)); higher = stronger / more preferred TF binding
# Conditions: protein concentration: 100 nM; construct: GST-full length
# Description: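 Universal 'all 10-mer' protein binding microarrays (Agilent AMADID 015681) probed with GST-tagged S. cerevisiae TFs (full-length or DBD) made by in vitro transcription/translation (PURExpress), about 100-200 nM. Bound TF was detected with fluorescent anti-GST. Each ungapped 8-mer (which stands for itself and its reverse complement) is scored by the PBM enrichment score (E-score), a modified Wilcoxon-Mann-Whitney statistic from -0.5 to +0.5, computed with the Universal PBM Analysis Suite. Scale: above 0.35 generally sequence-specific binding.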
row,Sequence,PBM E-score
1,GGAACACC,-0.114
2,AGAACTAA,0.169
3,GACCCTCC,-0.0998
4,TCAACGCA,-0.00081
5,ATCGACGG,-0.12
6,GGCTCTAC,-0.194
7,TAAGACAA,0.145
8,CTCCGAGC,0.055
9,CATAATTA,0.308
10,AAGATGTA,0.172
11,ACCCTAAT,0.0242
12,ACGGGTTC,-0.0118
13,CGGATCAA,0.177
14,CCGCCGCA,-0.0653
15,CCCGGATA,-0.0338
16,CTCTCATC,-0.139
17,CGTCCACA,-0.0072
18,ATGATTTA,0.268
19,ACACCGAC,-0.08
20,CATCGGGA,0.0547
21,GGCAAATA,0.0144
22,CAGGAGGG,-0.295
23,GTCCCATA,-0.0251
24,CGGACACC,-0.196
25,GGGCGTTA,-0.21

row,Sequence,PBM E-score
1,GTCCGACA,-0.0459
2,AGCGGAGC,-0.183
3,TAGTCTGA,-0.0562
4,GAGCGTGC,0.0704
5,ATATTTGC,0.209
6,AGCAGATC,0.0939
7,ATCGCAGG,0.0111
8,GGATGTAA,0.161
9,CACTTTAG,0.015
10,ATTGAGAC,0.0974
11,GGATTCTA,-0.0627
12,CTCGTAGC,-0.00363
13,ATCTGTTC,0.11
14,ATCGCCTG,-0.154
15,CGGGCGAG,0.0331
16,GCAGAGGC,-0.254
17,AAATAACG,0.19
18,AGACGCAA,0.0481
19,GGGCAGAA,0.145
20,CGTCTTAC,-0.0902
21,CCCTTACG,-0.176
22,CCGAAATC,0.106
23,CATATCTA,0.188
24,TGTGCAAA,-0.043
25,AGCGGGTA,0.00084

row,Sequence,PBM E-score
1,GGCTCAAC,-0.226
2,CATGCCCC,-0.0954
3,TGTTGGAA,-0.0219
4,AACACGCA,0.0582
5,CGTCTCCC,0.0276
6,AGACTTGA,-0.201
7,GCATGCGC,-0.00885
8,AGTACAAT,0.194
9,ACTACAGC,-0.109
10,CTGTCCAC,-0.165
11,CCACGAGG,-0.0525
12,AAATATAA,0.203
13,AAACTGTA,0.0732
14,GGTGGGGA,0.212
15,ACAATTTG,0.0697
16,AGTGTAAT,0.0629
17,AAACGGCG,0.136
18,CACTAAAC,0.113
19,CCGGGCGA,-0.0798
20,AGCGTCGC,-0.146
21,AAACCGAG,0.0209
22,ATGACACG,0.019
23,AAGCAGGG,-0.123
24,AGGACGGA,-0.0996
25,GCATAATA,0.235

row,Sequence,PBM E-score
1,AGGGCAAA,-0.0014
2,GCGCAAAC,0.151
3,GCTGCAAC,-0.0917
4,ATGTGTTC,0.0804
5,AGCGAGGA,-0.064
6,CATACGGA,0.178
7,CATGAAAG,0.0394
8,CCGGGCGC,-0.297
9,ATGCCCGC,-0.0394
10,CACATGAG,-0.105
11,CGAGCGCA,0.0288
12,CAACTACC,-0.00696
13,ACTTAAAC,0.00365
14,TAGACGCA,-0.127
15,GCCAGCAC,-0.0976
16,CGCACCCG,-0.0458
17,TCGACGAA,0.00487
18,TCCGGAAA,0.232
19,GTTAGGAA,-0.0679
20,GATTTAAA,-0.0641
21,CGTCTTGC,-0.0513
22,GCTTGTTA,0.13
23,GCCCTTTA,-0.201
24,ACCACCAT,-0.00834
25,AATAAGCT,0.164

row,Sequence,PBM E-score
1,GCTATAGC,-0.33
2,AAGCTAGG,0.0702
3,CCCCAGTC,-0.173
4,CAGCAATA,0.0927
5,ATCAAGAT,0.0415
6,GGCCGATA,-0.113
7,AGGGCTTC,-0.245
8,TACTTTAA,0.0965
9,ACAAGGGG,-0.198
10,ACCTATCG,0.144
11,TTCACGAA,-0.0758
12,ATGGCTTA,0.148
13,CCAATATA,0.0434
14,CATTCCGG,0.0772
15,CAGGCCCC,-0.301
16,GCCATTAC,0.0954
17,AGCATAGG,0.0243
18,CGGATATC,0.111
19,ATAGTCGA,0.19
20,ACACTAGA,0.111
21,CCCATGCA,-0.00485
22,TCTATAAA,0.0639
23,CATCTTAC,0.101
24,ACAACTAT,0.157
25,CGGCCCAA,-0.0355

row,Sequence,PBM E-score
1,CGGAACCA,0.246
2,ATTGATGA,0.119
3,GACTAGCC,-0.25
4,TTAGTAAA,0.269
5,ACCGCGAG,-0.122
6,ACGATGGA,0.00402
7,AGGGGATG,-0.0811
8,AAGTAGGC,-0.0336
9,AGATGCCG,-0.049
10,ACCCACAT,0.0905
11,CCGAATAA,0.166
12,CCACAAAG,0.113
13,GTACGCTA,-0.00613
14,ACAGAAGA,0.0865
15,ACGGTGTG,-0.126
16,ACATTTTG,0.159
17,TCCTCAGA,-0.165
18,CGCGCAAG,0.0818
19,CAACAACC,0.0257
20,CGAGCCAC,-0.252
21,CTAAGTTA,0.0404
22,AAGATCAT,0.0925
23,CCTCTGAC,-0.0742
24,CTGTGACA,-0.0283
25,ATAGACGC,0.122

# Single values from above:
# In PBM E-score, TTAGTAAA is listed with 0.269
# In PBM E-score, GACTAGCC is listed with -0.25

# Additional entries follow:

row,Sequence,PBM E-score
1,CCGCTGCA,-0.0851
2,ATCAGGAA,0.155
3,AACAGAGC,-0.0803
4,CTGCGAAG,-0.268
5,AACATCTG,-0.114
6,GGCACCCC,-0.246
7,AGCCGAGA,-0.0808
8,CTGTCTTA,0.00232
9,AGACACGG,-0.0099
10,CGACTAGC,-0.0834
11,ATGCCCCA,-0.0481
12,CAAGGAGG,0.00169
13,TCGGGAGA,-0.122
14,AGAATCCG,-0.0125
15,AATCTTCT,0.0501
16,TAGTAGGA,-0.03
17,ACTAACAA,0.147
18,TCCAACAA,-0.107
19,AAGGACGA,-0.127
20,GACGTATC,-0.218
21,CAATCTCG,0.0199
22,CGACGCCG,-0.0966

# In a second layout: entries from further up.
row | Sequence | PBM E-score
3 | AACAGAGC | -0.0803
12 | CAAGGAGG | 0.00169
21 | CAATCTCG | 0.0199
